Taken from: PubChem BioAssay AID1224826 (NIAID, 2016)
Purpose: 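Regulators of Tlr4 signalling leading to Tnf-alpha expression in macrophages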 (primary screen). Cell system: RAW264.7 G9 macrophages from mouse bearing reporters for p65 (GFP) and the Tnf promoter (mCherry). Reagent: siRNA pool against mouse genes, 100 nM. Time to read-out: 16 h of LPS stimulation, after 2 days of siRNA transfection. Challenge: bacterial lipopolysaccharide (Salmonella minnesota R595), 10 ng/ml. Detection: 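Imaged Tnf reporter mCherry in nuclei, minus background, normalised per plate to the median and expressed as robust z-scores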. Direction: Tnf reporter robust z-score: higher = stronger Tnf promoter reporter signal after LPS. Hit rule: 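a well counts as active at a score of -1.3 or below (Tlr4 knock-down control median) or above 3 (raised signal); controls and wells holding fewer than 50 cells are excluded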. Meaning of the calls: active = Tnf reporter clearly lowered or raised; inactive = no clear change in Tnf reporter.
The deposit covers about 17,000 reagents; shown is a part drawn at random. About 1,110 of all reagents (6.6%) were called active. 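Active means lowered or raised reporter signal; replicate intensities are raw and not normalised per plate.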 Unmarked entries are inactive. Not all columns of the deposit are shown. Reagent sequences are not shown.

no.	gene	Tnf reporter robust z-score	fewer than 50 cells in well
1	Ifi35 (interferon-induced protein 35)	-0.84	enough cells in well
2	Il18 (interleukin 18)	0.26	enough cells in well
3	Cdc25b (cell division cycle 25B)	1.58	enough cells in well
4	Acaa1a (acetyl-Coenzyme A acyltransferase 1A)	-1.73 (active)	enough cells in well
5	1700018B24Rik (RIKEN cDNA 1700018B24 gene)	-0.99	enough cells in well
6	Zfp1006 (zinc finger protein 1006)	0.92	enough cells in well
7	Sh3d19 (SH3 domain protein D19)	-0.68	enough cells in well
8	Or4f14d (olfactory receptor family 4 subfamily F member 14D)	0.04	enough cells in well
9	Hspa12a (heat shock protein family A (Hsp70) member 12A)	4.36 (active)	enough cells in well
10	Or13a26 (olfactory receptor family 13 subfamily A member 26)	1.49	enough cells in well
11	Traf7 (TNF receptor-associated factor 7)	1.68	enough cells in well
12	Efcab7 (EF-hand calcium binding domain 7)	-0.37	enough cells in well
13	Dmbx1 (diencephalon/mesencephalon homeobox 1)		fewer than 50 cells per well; well left out of calls
14	Nqo2 (N-ribosyldihydronicotinamide quinone reductase 2)	1.73	enough cells in well
15	Trp53bp2 (transformation related protein 53 binding protein 2)	0	enough cells in well
16	Pcdhb13 (protocadherin beta 13)	-0.25	enough cells in well
17	Rnpepl1 (arginyl aminopeptidase (aminopeptidase B)-like 1)	1.24	enough cells in well
18	Hfm1 (helicase for meiosis 1)	0.3	enough cells in well
19	Tmem170 (transmembrane protein 170)	-1.58 (active)	enough cells in well
20	Igfbp3 (insulin-like growth factor binding protein 3)		fewer than 50 cells per well; well left out of calls
21	Efcc1 (EF hand and coiled-coil domain containing 1)	-0.96	enough cells in well
22	Pgr (progesterone receptor)	-0.53	enough cells in well
23	Csf3r (colony stimulating factor 3 receptor)	-0.82	enough cells in well
24	Mrps34 (mitochondrial ribosomal protein S34)	0.81	enough cells in well
25	Rrp1b (ribosomal RNA processing 1B)		fewer than 50 cells per well; well left out of calls
26	Adgrg7 (adhesion G protein-coupled receptor G7)	0.38	enough cells in well
27	Phf24 (PHD finger protein 24)	-1.94 (active)	enough cells in well
28	Serpina3m (serine (or cysteine) peptidase inhibitor, clade A, member 3M)	-0.13	enough cells in well

Part of the list above, showing only “fewer than 50 cells in well”:
Il18 (interleukin 18)	enough cells in well
Cdc25b (cell division cycle 25B)	enough cells in well
Acaa1a (acetyl-Coenzyme A acyltransferase 1A)	enough cells in well (active)
1700018B24Rik (RIKEN cDNA 1700018B24 gene)	enough cells in well
Zfp1006 (zinc finger protein 1006)	enough cells in well
Sh3d19 (SH3 domain protein D19)	enough cells in well
Or4f14d (olfactory receptor family 4 subfamily F member 14D)	enough cells in well
Hspa12a (heat shock protein family A (Hsp70) member 12A)	enough cells in well (active)
Or13a26 (olfactory receptor family 13 subfamily A member 26)	enough cells in well
Traf7 (TNF receptor-associated factor 7)	enough cells in well
Efcab7 (EF-hand calcium binding domain 7)	enough cells in well
Dmbx1 (diencephalon/mesencephalon homeobox 1)	fewer than 50 cells per well; well left out of calls
Nqo2 (N-ribosyldihydronicotinamide quinone reductase 2)	enough cells in well

More reagents follow.
no.	gene	Tnf reporter robust z-score	fewer than 50 cells in well
29	Gpc1 (glypican 1)		fewer than 50 cells per well; well left out of calls
30	Pomp (proteasome maturation protein)		fewer than 50 cells per well; well left out of calls
31	Or8g18 (olfactory receptor family 8 subfamily G member 18)	-0.54	enough cells in well
32	Osbpl5 (oxysterol binding protein-like 5)	1.91	enough cells in well
33	Dgcr8 (DGCR8, microprocessor complex subunit)	-2.09 (active)	enough cells in well
34	Mfap3 (microfibrillar-associated protein 3)	-0.3	enough cells in well
35	Mtrf1 (mitochondrial translational release factor 1)	0.58	enough cells in well
36	Setd5 (SET domain containing 5)		fewer than 50 cells per well; well left out of calls
37	Vipas39	-0.82	enough cells in well
38	Kctd11 (potassium channel tetramerisation domain containing 11)	-0.26	enough cells in well
39	Scn3a (sodium channel, voltage-gated, type III, alpha)	-0.02	enough cells in well
40	Rrp9	0.18	enough cells in well
41	Idua (iduronidase, alpha-L)	0.67	enough cells in well
42	Pde8a (phosphodiesterase 8A)	-1.16	enough cells in well
43	Cpsf4 (cleavage and polyadenylation specific factor 4)	-1.26	enough cells in well
44	Tec (tec protein tyrosine kinase)	-1.54 (active)	enough cells in well
45	Hfe (homeostatic iron regulator)	2.35	enough cells in well
46	Mapk15 (mitogen-activated protein kinase 15)	0	enough cells in well
47	Cep89 (centrosomal protein 89)	-1.34 (active)	enough cells in well
48	Or10ag56 (olfactory receptor family 10 subfamily AG member 56)	0.84	enough cells in well
49	Cox7c (cytochrome c oxidase subunit 7C)	1.09	enough cells in well
50	Tll2 (tolloid-like 2)	-1.14	enough cells in well
51	Rad17 (RAD17 checkpoint clamp loader component)	0.93	enough cells in well
52	Dclre1c (DNA cross-link repair 1C)	0.45	enough cells in well
53	Psmc6 (proteasome (prosome, macropain) 26S subunit, ATPase, 6)		fewer than 50 cells per well; well left out of calls
54	Rps27l (ribosomal protein S27-like)	1.33	enough cells in well
55	Gbp7 (guanylate binding protein 7)	-1.43 (active)	enough cells in well
56	Dlx5 (distal-less homeobox 5)	0.39	enough cells in well
57	Ilf2 (interleukin enhancer binding factor 2)	1	enough cells in well
58	Agrn (agrin)	-0.95	enough cells in well
59	Kctd6 (potassium channel tetramerisation domain containing 6)	0.62	enough cells in well
60	Slc5a9	-0.79	enough cells in well
61	Iqcj (IQ motif containing J)	1.5	enough cells in well
62	Vmac	0.8	enough cells in well
63	Bmp7 (bone morphogenetic protein 7)	-0.57	enough cells in well
64	Grin3a (glutamate receptor ionotropic, NMDA3A)	-1.51 (active)	enough cells in well
65	Dennd6b (DENN domain containing 6B)		fewer than 50 cells per well; well left out of calls
66	Fam216a (family with sequence similarity 216, member A)		fewer than 50 cells per well; well left out of calls
67	Dbp (D site albumin promoter binding protein)	-0.77	enough cells in well
68	Hmga1 (high mobility group AT-hook 1)	-0.98	enough cells in well
69	5031404N07	-0.43	enough cells in well
70	Otof (otoferlin)	-0.65	enough cells in well
71	Srgap3 (SLIT-ROBO Rho GTPase activating protein 3)	0.52	enough cells in well
72	Vmn1r42 (vomeronasal 1 receptor 42)		fewer than 50 cells per well; well left out of calls
73	Ulk2 (unc-51 like kinase 2)	-0.73	enough cells in well
74	Klk7	1.46	enough cells in well
75	Rgs4 (regulator of G-protein signaling 4)		fewer than 50 cells per well; well left out of calls
